Some of the results follow.
system: T1, CTL2-GFP (C. trachomatis L2/434/Bu, GFP-expressing); parameters: species or system HeLa; Intracellular C. trachomatis growth in HeLa cells, bulk GFP fluorescence relative to DMSO; settings: bulk GFP, single well; 28.5 h, 10 µM; inhibitor
T1 construct: L2/434/Bu, GFP-expressing

Compared with `c1ccc(N2CCOCC2)c(COc2cncc(N3CCNCC3)n2)c1` [CBK172351G], `c1ccc2c(c1)OCC(COc1cncc(OC3CCN(CC4CCCCC4)C3)n1)O2` (stereo not shown) [CBK084387] is lower in “% of control remaining” value: 121.527% for the first, 102.609% for the second.

Going from `CCN1C(=O)C2(CC(=O)N(CCc3scnc3C)C2=O)c2cc(C)ccc21` (stereo not shown) [CBK075217] to `Cc1ccc2c(c1)C1(CC(=O)N(C)C1=O)C(=O)N2CCCOc1ccccc1` (stereo not shown) [CBK075496], the “% of control remaining” value rises from 115.719% to 133.566%.

Going from `Cc1cc(C)cc(NC(=O)C2C3C4CCC(C4)C23)c1` (stereo not shown) [CBK058768] to `Cc1cc(C)cc(N(C(C)C(=O)Nc2ccccc2-c2ccccc2)S(C)(=O)=O)c1` (stereo not shown) [CBK268770], the “% of control remaining” value falls from 124.564% to 100.662%.

Going from `CCc1nccn1CCN1CCCC(COc2ccccc2F)C1` (stereo not shown) [CBK307416] to `COc1ccc(-c2cnc(N)nc2C2CCCN(C(=O)CCCc3ccccc3)C2)cc1` (stereo not shown) [CBK286091], the “% of control remaining” value falls from 134.032% to 123.623%.

Compared with `COc1ccc(N2C(=S)N(Cc3cccs3)[C@H]3[C@@H](O)[C@H](O)C[C@@H](C(N)=O)[C@H]32)cc1` [CBK288929], `CCC(=O)Nc1nc(-c2ccc(OC)cc2)cs1` [CBK070494] is lower in “% of control remaining” value: 126.656% for the first, 119.935% for the second.

First: Cc1[nH]c2ccccc2c1[C@H]1CC[C@@H](NC(=O)c2ccnn2C)C1 [CBK284761]
Second: CC(=O)Nc1nc(-c2ccccc2C)ccc1C(=O)NC1CCCCC1 [CBK106327]
The “% of control remaining” value of the first is higher: 139.689% for the first, 100% for the second.

First: CN1CCN(c2cc(CNC(=O)c3ccnc(Cl)c3)ccn2)CC1 [CBK298275]
Second: N#Cc1ccsc1NC(=O)CN1CCN(c2cccc(Cl)c2)CC1 [CBK306192]
The “% of control remaining” value of the first is higher: 126.794% for the first, 83.0939% for the second.

Compared with `O=C(Nc1cccc(C(=O)O)c1)Nc1ccc(Cl)c(Cl)c1` [CBK155455G], `O=C(O)CCCC(=O)Nc1ccc(Cc2ccncc2)cc1` [CBK300493] is higher in “% of control remaining” value: 106.736% for the first, 110.152% for the second.

First: CN(C)c1nc(N(C)CC2(CO)CCOCC2)ncc1F [CBK307091]
Second: CC(C)(C)c1n[nH]c(C2CN(C(=O)CCc3cscn3)CCO2)n1 (stereo not shown) [CBK305205]
The “% of control remaining” value of the first is lower: 113.5% for the first, 119.415% for the second.

Compared with `Cc1cc(Cc2cccc(Cl)c2)cc(C2CCCN(C(=O)CN3CCCC3=O)C2)n1` (stereo not shown) [CBK286103], `COc1cccc(-c2ccc3c(c2)[nH]c(=O)n3C2CCN(C(=O)c3ccc(C)c(OC)c3)CC2)c1` [CBK153141] is lower in “% of control remaining” value: 134.561% for the first, 104.593% for the second.

Going from `CC(=O)Nc1ccc(S(=O)(=O)N2CCN(C(=O)COc3ccc4ccccc4c3)CC2)cc1` [CBK264164] to `COc1ccc(OCC(=O)N2CCN(S(=O)(=O)c3ccccc3[N+](=O)[O-])CC2)cc1` [CBK264213], the “% of control remaining” value falls from 125.753% to 121.625%.

Going from `Cc1ccc(-c2ccc(CCC(=O)O)[nH]2)cc1` [CBK264820] to `NC(=O)CCNC(=O)c1ccc2[nH]ccc2c1` [CBK149082], the “% of control remaining” value rises from 98.5477% to 108.098%.

Going from `Cc1c2cn[nH]c(=O)c2c(C)n1-c1ccccc1` [CBK018349] to `Cc1c(Cl)cccc1S(=O)(=O)Nc1c(C(=O)N2CCOCC2)[nH]c2ccccc12` [CBK050076], the “% of control remaining” value falls from 143.097% to 131.696%.

First: CCOCCn1cnc2sc(C(=O)NCc3ccccn3)c(C)c2c1=O [CBK071857]
Second: Cc1nc2sccn2c(=O)c1NC(=O)c1ccccn1 [CBK287665]
The “% of control remaining” value of the first is higher: 141.366% for the first, 94.8652% for the second.

Compared with `O=C1NN(c2ccc(F)c(Cl)c2)C(=O)/C1=C/c1ccc(-c2ccc(Cl)cc2)o1` [CBK095978], `O=C1CSC(c2cn(-c3ccccc3)nc2-c2ccc(Br)cc2)N1Cc1ccccc1` (stereo not shown) [CBK263146] is higher in “% of control remaining” value: 63.304% for the first, 113.464% for the second.

Compared with `C#C[C@H]1C[N@@]2CC[C@H]1C[C@@H]2CNS(=O)(=O)c1ccc(NC(C)=O)cc1` [CBK288752], `CC(=O)NS(=O)(=O)c1ccc(Nc2ccc([N+](=O)[O-])c3nonc23)cc1` [CBK261443] is lower in “% of control remaining” value: 118.498% for the first, 117.451% for the second.

Going from `FC(F)(F)Oc1ccc(-c2nccnc2OCC2COc3ccccc3O2)cc1` (stereo not shown) [CBK106845] to `CCCCCOc1ccc(Nc2ccc(-c3cc4ccccc4o3)cn2)cc1` [CBK036828], the “% of control remaining” value falls from 93.614% to 76.8498%.

First: CN1C(=O)/C(=C2\SC(=S)N(C(CC(=O)O)C(=O)O)C2=O)c2ccccc21 (stereo not shown) [CBK261012]
Second: COC(=O)c1c(NC(=O)CC2Sc3ccccc3NC2=O)sc(C)c1C (stereo not shown) [CBK264429]
The “% of control remaining” value of the first is lower: 68.126% for the first, 100% for the second.

Compared with `Cc1cc(C)c2c(OCC(=O)N(C)CC(=O)NC(C)C)nn(C)c2n1` [CBK304931], `CCn1nc(C2CCCC2)nc1-c1cnc2ccnn2c1C` [CBK306626] is lower in “% of control remaining” value: 112.165% for the first, 111.229% for the second.

First: O=C(NCCCN1CCCC(O)C1)N1CCCN(Cc2cccs2)CC1 (stereo not shown) [CBK307116]
Second: O=C(CNC(=O)C1CCCCC1)NNC(=O)c1ccccc1Br [CBK267828]
The “% of control remaining” value of the first is higher: 173.331% for the first, 141.84% for the second.

First: CO/N=C\c1c(CO)cnc(C)c1O [CBK022776]
Second: CC(=O)c1ccc(-c2cnc(N)c(N3CCC[C@@H]3CO)n2)s1 [CBK063438]
The “% of control remaining” value of the first is lower: 138.893% for the first, 164.946% for the second.

First: Cc1noc(C)c1C(=O)NCCc1ccc(S(N)(=O)=O)cc1 [CBK268143]
Second: O=C(NC1(C(F)(F)F)NC(=O)N(CCc2ccccc2)C1=O)c1ccco1 (stereo not shown) [CBK267482]
The “% of control remaining” value of the first is lower: 106.448% for the first, 121.664% for the second.

Going from `CC1(C(=O)O)CC(C)(C(=O)O)CC(C)(C(=O)O)C1` (stereo not shown) [CBK266107] to `CN(C)CC1CCCCN1S(=O)(=O)c1ccc(C(C)(C)C)cc1` (stereo not shown) [CBK051347], the “% of control remaining” value rises from 100% to 138.588%.

Going from `O=C(/C=C/c1ccc2c(c1)OCO2)NCCSCc1c(F)cccc1Cl` [CBK265239] to `CC(C)(c1ccccc1)c1ccc(OCCOc2ccc(/C=C3\SC(=S)NC3=O)cc2)cc1` [CBK264378], the “% of control remaining” value rises from 118.438% to 129.535%.

In the case of `O=C1COc2ccccc2C/C=C/CC2(CCN(C(=O)Cc3cccnc3)CC2)C(=O)NCCN1` [CBK292153], the “% of control remaining” value is reported as 117.491%.
